Data on 35 compounds can be found in PubChem BioAssay AID2685 (National Center for Advancing Translational Sciences (NCATS), 2010).

This test can be described thus: qHTS Assay for Lipid Storage Modulators in Drosophila S3 Cells.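 For cell number change: cells counted by Cell Tracker Red CMTPX staining in the red channel.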 Conditions: BODIPY lipid droplet fluorescence, 18-24 h; for cell number change: measured here: cell count max response, cells fed with added oleic acid. In outline: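 Drosophila S3 cells got compounds at several concentrations plus oleic acid (400 uM solution). Laser-scanning cytometry with 488 nm excitation read lipid droplets at 500-530 nm and cells at 575-640 nm. Percent activity was relative to 20 uM Triacsin C.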
(In general: Quantitative high-throughput screening tests each substance at several concentrations.)

Setting [1] is: measured here: cell number channel AC50, cells fed with added oleic acid.
Setting [2] is: measured here: lipid fluorescence (Fed channel) AC50, cells fed with added oleic acid.

The list shows a part of the results. Further columns of the screen follow, without active or inactive calls. The list favours compounds with an active or inconclusive main result. Words in brackets tell the shape of the fitted curve; partial curves, single points and poor fits give uncertain potencies.

On to `Cc1no[n+]([O-])c1COc1ccc(/C=N/n2nnnc2N)cc1`, for which the cell number change was -51.7%. Further, the half-maximal activity concentration (AC50) under setting [1] was 32.6 µM [falling, single point]. In addition, the AC50 under setting [2] is 0.651 µM [falling, full curve, poor fit].

With `C[C@@H]1NC(=O)c2cc([N+](=O)[O-])cc(I)c2NCCCC[C@@H](C(N)=O)NC(=O)[C@H](CCC(=O)O)NC1=O`, the AC50 is, setting by setting: under setting [1], 4.11 µM [falling, partial curve, poor fit]; under setting [2], 2.91 µM [falling, partial curve, poor fit].

For the compound `O=C(CSc1nc(O)cc(=O)n1-c1ccccc1)NC1CCCCC1`, the cell number change was 35%. The concentration at half-maximal activity (AC50) under setting [1] was 8.2 µM [rising, partial curve, poor fit]. Also, under setting [2], the AC50 was 0.58 µM [falling, single point].

With `CCN(CC)CCn1c2c(c(SCC(=O)Nc3ccc4c(c3)OCO4)nc1=O)CCC2`, the concentration at half-maximal activity (AC50) under setting [2] was 6.51 µM [rising, single point].

In the case of `COc1cc2ccccc2cc1C(=O)Nc1ccncc1`, the cell number change was -7.78%. Also, the AC50 under setting [2] was 6.51 µM [falling, single point].

On to `CN(/N=C/c1ccco1)C1=NS(=O)(=O)c2ccccc21`, for which the cell number change stood at 3.48%. Under setting [1], the concentration at half-maximal activity (AC50) is 0.092 µM [falling, full curve, poor fit]. Moreover, under setting [2], the concentration at half-maximal activity (AC50) is 0.092 µM [falling, full curve, poor fit].

As for `CCCCNC(=O)[C@H]1C[C@H]1[C@@H](O)[C@H](CO)NC(=O)[C@H](COCc1ccccc1)NC(=O)OC(C)(C)C`, the cell number change was -0.299%.

For `C/C(=N\N=C(/N)SC1CC(=O)N(c2ccccc2)C1=O)c1cccs1` (configuration not stated), the cell number change was -39.4%. Further, the AC50 under setting [1] is 32.6 µM [falling, partial curve, poor fit]. In addition, under setting [2], the AC50 is 29.1 µM [falling, partial curve, poor fit].

As for `Clc1cc(Br)ccc1OCCN1CCOCC1`, the cell number change turned out to be 49%. Besides, the AC50 under setting [1] was 9.2 µM [rising, partial curve]. Further, the AC50 under setting [2] is 16.4 µM [rising, partial curve].

Take `CC(C)Cc1ccc(C(C)C(=O)Nc2ncccn2)cc1` (configuration not stated): the cell number change is -13.7%. Also, the AC50 under setting [1] is 0.13 µM [rising, partial curve, poor fit].

Take `O=C(O)CC(SCC(=O)NC1CCCc2ccccc21)C(=O)O` (configuration not stated): the cell number change was -24.9%. Also, the AC50 under setting [2] was 9.2 µM [falling, partial curve].

With `Clc1ccc(C2=NCCn3nc4ccccc4c32)cc1`, the cell number change is -3.5%. Further, the AC50 under setting [2] is 6.51 µM [falling, single point].

With `CN(C)c1ccc(/C=N/NC(=O)c2ccc(CN3CCOCC3)cc2)cc1Br`, under setting [1], the half-maximal activity concentration (AC50) is 0.82 µM [rising, single point].

As to `CCN(CC)S(=O)(=O)c1cc([N+](=O)[O-])ccc1N=Nc1c(O)n(C)c2ccccc12`, the cell number change is 4.83%.

For `CCn1cc(C(=O)NP(=O)(Nc2ccc(C)cc2)Nc2ccc(C)cc2)c2ccccc21`, the cell number change was -11.5%. Also, the concentration at half-maximal activity (AC50) under setting [2] was 0.164 µM [falling, full curve, poor fit].

For `CCCc1cc(=O)oc2c(C)c(OCC(=O)NC3CC(C)(C)NC(C)(C)C3)ccc12`, under setting [2], the AC50 was 29.1 µM [rising, single point].

Consider `CCCn1c(N)c(C(=O)CSc2nncs2)c(=O)[nH]c1=O`, for which the cell number change was 7.28%. Also, the AC50 under setting [1] was 0.651 µM [falling, single point]. The concentration at half-maximal activity (AC50) under setting [2] was 0.651 µM [falling, single point].

As for `Cc1ccc2nc(CSc3nnc(Nc4ccccc4C)s3)cc(=O)n2c1`, the cell number change stood at 28.9%. Besides, the half-maximal activity concentration (AC50) under setting [2] is 29.1 µM [rising, single point].

With `COc1cc(N=c2ssnc2Cl)cc(OC)c1`, the cell number change was -60.1%. Also, the AC50 under setting [1] was 29.1 µM [falling, single point].

In the case of `COc1cc(-c2nc3n(n2)C(c2cccc(OC)c2OC)C2=C(CCCC2=O)N3)cc(OC)c1OC` (configuration not stated), the cell number change is 25.2%. Besides, the AC50 under setting [2] is 20.6 µM [rising, single point].

Regarding `CCC(c1nnc(SCC(=O)NCCc2ccc(Cl)cc2Cl)o1)N(C)C` (configuration not stated), the cell number change came to 47.6%. In addition, under setting [1], the AC50 is 1.3 µM [rising, partial curve]. Moreover, the concentration at half-maximal activity (AC50) under setting [2] was 6.51 µM [rising, single point].

Turning to `COc1ccc(C(=O)CC(c2ccccc2)C2C(=O)CCCC2=O)cc1` (configuration not stated), the cell number change was determined as 8.9%. In addition, the AC50 under setting [1] was 0.00731 µM [rising, full curve, poor fit].

For the compound `CCCSc1ccc([C@H]2N[C@@](C)(C(=O)OC)[C@H]3C(=O)N(C)C(=O)[C@@H]23)cc1`, the half-maximal activity concentration (AC50) under setting [2] was 13 µM [rising, partial curve, poor fit].

Take `O=C(OC(C(=O)NC1CCCCC1)c1ccccc1F)c1ccco1` (configuration not stated): the cell number change amounted to 3.75%. Besides, the concentration at half-maximal activity (AC50) under setting [2] was 0.00651 µM [falling, full curve, poor fit].

As to `C=CCn1c(SCC(=O)Nc2cc(C)nn2-c2ccccc2)nnc1C1CCCCC1`, the cell number change is 26.4%. The concentration at half-maximal activity (AC50) under setting [2] was 0.326 µM [rising, full curve].

Regarding `CSc1n[nH]c(/N=C/c2oc(O)c3ccccc23)n1`, the cell number change was -21%. Moreover, the half-maximal activity concentration (AC50) under setting [1] was 6.51 µM [falling, single point]. Also, the half-maximal activity concentration (AC50) under setting [2] is 25.9 µM [falling, single point].

Regarding `COc1ccc(C(=O)Sc2ccc(Cl)cc2)cc1OC`, the cell number change is -25.5%. The concentration at half-maximal activity (AC50) under setting [2] is 3.26 µM [falling, single point].

With `CC1CCCCN1C(=O)C(=O)c1cn(CC(=O)N2CCCCCC2)c2ccccc12` (configuration not stated), the cell number change is 2.27%. Also, the AC50 under setting [2] is 2.91 µM [falling, partial curve].

For `O=C(N/N=C/c1ccc(Br)cc1)c1ccccc1-n1cccc1`, the cell number change is -16.2%.

As to `CCOC(=O)C1C(c2ccc(O)c(O)c2)NC(=S)NC1(O)C(F)(F)F` (configuration not stated), the cell number change was determined as 2.22%. For the same compound, the AC50 under setting [1] is 6.51 µM [rising, single point].

On to `COc1cccc(OCC(=O)NC2CCS(=O)(=O)C2)c1` (configuration not stated), for which the cell number change turned out to be 121%. The AC50 under setting [1] was 29.1 µM [rising, single point]. For the same compound, the AC50 under setting [2] was 0.58 µM [rising, single point].

Consider `COc1ccc(NS(=O)(=O)c2cc(NS(=O)(=O)c3cccs3)ccc2C)cc1`, for which the cell number change came out at 75%. The half-maximal activity concentration (AC50) under setting [1] is 29.1 µM [rising, single point]. For the same compound, the AC50 under setting [2] is 0.00517 µM [falling, full curve, poor fit].

For `CCCCNC(=O)c1ccc2c(c1)N(CC)C(=O)CS2`, the cell number change was -39.6%. Besides, the half-maximal activity concentration (AC50) under setting [1] was 29.1 µM [falling, single point].

Take `CCN(CC)CCNc1nc2ccccc2n1C`: the cell number change is -7.05%.

For `CCOc1ccc(-c2n[nH]c(C)c2Oc2ccc(OC)cc2)c(O)c1`, the cell number change was -85.8%. Besides, the AC50 under setting [1] was 18.4 µM [falling, partial curve].

Broadly, the AC50 is the concentration giving half of the maximal activity seen.
